Experimental data published in the supplement of paper PMC10849652.
The other results are listed elsewhere or left out.

Sequences of proteins named here, by UniProt entry; tags and fusion partners are left off. A change or cut given only in a name is not applied to a line headed by its entry.
UniProt P32189: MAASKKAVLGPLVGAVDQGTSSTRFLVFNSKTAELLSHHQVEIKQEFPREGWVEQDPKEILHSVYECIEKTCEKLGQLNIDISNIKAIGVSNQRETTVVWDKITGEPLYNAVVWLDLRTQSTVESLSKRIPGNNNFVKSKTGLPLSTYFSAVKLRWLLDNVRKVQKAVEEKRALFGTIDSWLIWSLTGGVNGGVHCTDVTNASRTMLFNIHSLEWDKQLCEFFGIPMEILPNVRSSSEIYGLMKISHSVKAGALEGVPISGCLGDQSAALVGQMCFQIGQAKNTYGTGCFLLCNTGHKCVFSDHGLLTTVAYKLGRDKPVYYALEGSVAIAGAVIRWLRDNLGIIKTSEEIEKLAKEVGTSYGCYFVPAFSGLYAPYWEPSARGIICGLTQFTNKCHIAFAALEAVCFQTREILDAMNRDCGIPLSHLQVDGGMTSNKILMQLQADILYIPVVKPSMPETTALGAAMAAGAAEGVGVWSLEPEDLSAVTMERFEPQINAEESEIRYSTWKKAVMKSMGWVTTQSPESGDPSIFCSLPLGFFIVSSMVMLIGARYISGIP
UniProt Q8N954: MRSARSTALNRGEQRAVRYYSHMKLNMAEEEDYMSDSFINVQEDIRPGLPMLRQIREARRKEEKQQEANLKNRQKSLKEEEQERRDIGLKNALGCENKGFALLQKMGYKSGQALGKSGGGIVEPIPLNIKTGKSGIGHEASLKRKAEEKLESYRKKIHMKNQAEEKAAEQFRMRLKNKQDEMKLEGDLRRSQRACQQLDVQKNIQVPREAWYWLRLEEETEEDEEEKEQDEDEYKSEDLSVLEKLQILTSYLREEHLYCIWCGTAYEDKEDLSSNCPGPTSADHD
UniProt Q92917: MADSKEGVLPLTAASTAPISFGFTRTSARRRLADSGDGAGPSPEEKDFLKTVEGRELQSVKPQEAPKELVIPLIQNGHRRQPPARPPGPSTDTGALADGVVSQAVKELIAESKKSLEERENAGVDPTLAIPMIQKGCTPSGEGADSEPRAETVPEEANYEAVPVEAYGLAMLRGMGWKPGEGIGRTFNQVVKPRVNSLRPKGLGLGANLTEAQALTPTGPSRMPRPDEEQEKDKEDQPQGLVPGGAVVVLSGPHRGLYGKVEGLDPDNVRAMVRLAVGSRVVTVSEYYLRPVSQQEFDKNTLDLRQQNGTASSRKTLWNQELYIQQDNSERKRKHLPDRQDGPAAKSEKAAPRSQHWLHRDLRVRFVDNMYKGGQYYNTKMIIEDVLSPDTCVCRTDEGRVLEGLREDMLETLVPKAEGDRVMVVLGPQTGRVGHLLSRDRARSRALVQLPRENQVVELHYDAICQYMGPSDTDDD
UniProt P62873, whole entry, looked up: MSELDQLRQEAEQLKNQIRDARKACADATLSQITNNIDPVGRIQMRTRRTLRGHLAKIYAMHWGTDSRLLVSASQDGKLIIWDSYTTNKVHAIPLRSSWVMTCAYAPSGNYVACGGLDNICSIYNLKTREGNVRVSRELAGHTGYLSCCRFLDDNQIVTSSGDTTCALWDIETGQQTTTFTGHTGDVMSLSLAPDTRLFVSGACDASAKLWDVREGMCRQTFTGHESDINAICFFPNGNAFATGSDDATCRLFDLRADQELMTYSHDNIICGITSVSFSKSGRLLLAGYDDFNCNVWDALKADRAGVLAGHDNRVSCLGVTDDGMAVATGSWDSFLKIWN
UniProt Q14691: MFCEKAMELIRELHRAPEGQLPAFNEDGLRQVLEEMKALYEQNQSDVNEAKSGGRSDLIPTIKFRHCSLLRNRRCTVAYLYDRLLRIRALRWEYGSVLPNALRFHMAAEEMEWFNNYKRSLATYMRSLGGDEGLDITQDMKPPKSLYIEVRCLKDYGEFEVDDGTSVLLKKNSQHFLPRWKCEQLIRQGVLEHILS
UniProt P04899, whole entry, looked up: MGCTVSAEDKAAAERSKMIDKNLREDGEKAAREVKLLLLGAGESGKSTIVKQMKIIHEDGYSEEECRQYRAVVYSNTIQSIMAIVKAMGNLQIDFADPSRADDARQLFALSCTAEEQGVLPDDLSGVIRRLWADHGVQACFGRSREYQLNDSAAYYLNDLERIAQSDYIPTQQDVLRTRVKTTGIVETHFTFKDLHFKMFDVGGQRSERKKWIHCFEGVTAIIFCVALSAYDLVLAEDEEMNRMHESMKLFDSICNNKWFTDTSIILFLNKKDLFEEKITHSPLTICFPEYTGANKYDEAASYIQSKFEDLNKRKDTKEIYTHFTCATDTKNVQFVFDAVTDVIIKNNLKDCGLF
UniProt Q9Y5P6: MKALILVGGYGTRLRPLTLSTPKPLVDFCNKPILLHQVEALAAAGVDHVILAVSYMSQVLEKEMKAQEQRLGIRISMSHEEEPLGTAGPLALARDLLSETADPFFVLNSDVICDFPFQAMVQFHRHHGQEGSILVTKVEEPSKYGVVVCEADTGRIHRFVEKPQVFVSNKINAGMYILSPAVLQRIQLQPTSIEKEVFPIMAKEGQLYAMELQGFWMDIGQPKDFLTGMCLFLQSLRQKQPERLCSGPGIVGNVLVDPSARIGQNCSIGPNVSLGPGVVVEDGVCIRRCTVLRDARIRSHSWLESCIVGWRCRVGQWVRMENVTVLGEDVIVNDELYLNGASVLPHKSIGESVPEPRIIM
UniProt Q9HAV0, whole entry, looked up: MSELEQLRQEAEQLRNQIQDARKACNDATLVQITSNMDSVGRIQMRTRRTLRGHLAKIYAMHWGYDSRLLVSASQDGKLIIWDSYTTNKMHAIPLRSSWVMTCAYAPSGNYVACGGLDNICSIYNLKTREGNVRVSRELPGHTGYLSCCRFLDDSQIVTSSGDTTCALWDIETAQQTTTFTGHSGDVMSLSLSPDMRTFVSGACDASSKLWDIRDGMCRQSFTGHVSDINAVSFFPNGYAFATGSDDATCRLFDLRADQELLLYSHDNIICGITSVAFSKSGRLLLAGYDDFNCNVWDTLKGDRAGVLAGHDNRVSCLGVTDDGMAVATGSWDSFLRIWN
UniProt Q9NQX3: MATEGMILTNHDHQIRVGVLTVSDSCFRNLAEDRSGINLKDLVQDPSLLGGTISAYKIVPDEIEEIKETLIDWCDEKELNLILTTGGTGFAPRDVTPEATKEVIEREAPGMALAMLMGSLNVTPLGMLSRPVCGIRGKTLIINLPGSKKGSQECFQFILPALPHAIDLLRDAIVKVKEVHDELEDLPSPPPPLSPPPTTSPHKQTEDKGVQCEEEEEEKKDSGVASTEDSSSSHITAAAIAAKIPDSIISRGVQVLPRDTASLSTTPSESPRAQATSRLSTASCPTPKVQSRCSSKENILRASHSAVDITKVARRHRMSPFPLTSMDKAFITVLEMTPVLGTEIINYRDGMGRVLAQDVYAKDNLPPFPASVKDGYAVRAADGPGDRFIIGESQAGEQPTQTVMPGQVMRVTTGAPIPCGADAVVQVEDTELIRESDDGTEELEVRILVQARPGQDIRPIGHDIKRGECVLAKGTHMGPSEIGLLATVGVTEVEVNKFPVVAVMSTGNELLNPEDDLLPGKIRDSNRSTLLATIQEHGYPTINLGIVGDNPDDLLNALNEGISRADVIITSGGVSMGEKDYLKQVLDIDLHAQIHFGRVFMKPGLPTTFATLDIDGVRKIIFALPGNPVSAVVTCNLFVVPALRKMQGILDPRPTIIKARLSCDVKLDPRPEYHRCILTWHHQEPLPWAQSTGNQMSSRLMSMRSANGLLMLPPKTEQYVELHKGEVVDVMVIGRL
UniProt P36915, whole entry, looked up: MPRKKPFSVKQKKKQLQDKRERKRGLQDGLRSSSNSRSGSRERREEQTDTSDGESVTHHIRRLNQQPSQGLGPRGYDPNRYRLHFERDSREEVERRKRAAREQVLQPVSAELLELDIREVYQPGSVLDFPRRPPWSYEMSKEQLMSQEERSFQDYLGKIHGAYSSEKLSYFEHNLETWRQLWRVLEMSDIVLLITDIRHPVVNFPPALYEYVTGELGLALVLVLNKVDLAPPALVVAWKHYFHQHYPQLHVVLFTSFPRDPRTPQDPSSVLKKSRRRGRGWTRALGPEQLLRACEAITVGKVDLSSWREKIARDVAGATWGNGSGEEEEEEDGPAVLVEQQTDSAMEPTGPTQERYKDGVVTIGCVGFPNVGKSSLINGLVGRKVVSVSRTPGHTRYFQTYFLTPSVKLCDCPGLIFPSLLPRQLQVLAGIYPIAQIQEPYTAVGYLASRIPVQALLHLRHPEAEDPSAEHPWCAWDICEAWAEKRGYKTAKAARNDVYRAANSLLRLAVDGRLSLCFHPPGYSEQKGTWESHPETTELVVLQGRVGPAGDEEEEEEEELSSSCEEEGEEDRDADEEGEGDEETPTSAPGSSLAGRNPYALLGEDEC
UniProt P49840: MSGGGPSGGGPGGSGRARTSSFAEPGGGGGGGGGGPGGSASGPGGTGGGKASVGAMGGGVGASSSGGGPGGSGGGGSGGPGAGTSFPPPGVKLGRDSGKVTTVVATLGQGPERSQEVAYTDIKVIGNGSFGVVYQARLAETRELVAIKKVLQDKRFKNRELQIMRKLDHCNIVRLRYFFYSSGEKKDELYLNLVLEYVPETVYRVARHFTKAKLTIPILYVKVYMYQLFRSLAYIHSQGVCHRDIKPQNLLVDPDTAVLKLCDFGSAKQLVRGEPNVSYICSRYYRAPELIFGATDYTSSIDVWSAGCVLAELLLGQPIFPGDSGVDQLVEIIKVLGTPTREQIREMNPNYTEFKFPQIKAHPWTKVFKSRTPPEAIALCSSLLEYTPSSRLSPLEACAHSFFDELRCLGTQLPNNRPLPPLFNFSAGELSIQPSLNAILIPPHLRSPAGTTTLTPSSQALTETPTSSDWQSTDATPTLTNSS
UniProt Q86UL3: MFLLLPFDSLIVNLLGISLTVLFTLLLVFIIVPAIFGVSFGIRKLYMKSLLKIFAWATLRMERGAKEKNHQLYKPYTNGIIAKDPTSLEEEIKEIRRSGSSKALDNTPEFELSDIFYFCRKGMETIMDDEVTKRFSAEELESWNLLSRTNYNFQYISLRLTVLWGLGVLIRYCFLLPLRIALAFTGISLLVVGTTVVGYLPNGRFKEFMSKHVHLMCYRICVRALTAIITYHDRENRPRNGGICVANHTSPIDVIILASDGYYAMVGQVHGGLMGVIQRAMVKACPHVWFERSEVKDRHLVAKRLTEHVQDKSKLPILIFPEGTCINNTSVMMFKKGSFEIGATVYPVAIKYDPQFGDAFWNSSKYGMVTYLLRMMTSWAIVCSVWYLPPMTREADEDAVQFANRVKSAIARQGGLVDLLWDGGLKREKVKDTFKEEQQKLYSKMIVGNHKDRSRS
UniProt O14908: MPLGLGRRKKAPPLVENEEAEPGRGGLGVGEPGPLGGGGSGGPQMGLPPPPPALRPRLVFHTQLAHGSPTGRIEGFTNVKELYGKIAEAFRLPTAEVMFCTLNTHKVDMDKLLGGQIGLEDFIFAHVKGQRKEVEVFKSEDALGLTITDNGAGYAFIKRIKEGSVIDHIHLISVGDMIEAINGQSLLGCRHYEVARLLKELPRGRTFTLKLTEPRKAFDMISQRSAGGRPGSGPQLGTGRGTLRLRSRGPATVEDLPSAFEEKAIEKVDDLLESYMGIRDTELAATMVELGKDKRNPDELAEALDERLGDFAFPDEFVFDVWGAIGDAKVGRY
UniProt Q9BYB4: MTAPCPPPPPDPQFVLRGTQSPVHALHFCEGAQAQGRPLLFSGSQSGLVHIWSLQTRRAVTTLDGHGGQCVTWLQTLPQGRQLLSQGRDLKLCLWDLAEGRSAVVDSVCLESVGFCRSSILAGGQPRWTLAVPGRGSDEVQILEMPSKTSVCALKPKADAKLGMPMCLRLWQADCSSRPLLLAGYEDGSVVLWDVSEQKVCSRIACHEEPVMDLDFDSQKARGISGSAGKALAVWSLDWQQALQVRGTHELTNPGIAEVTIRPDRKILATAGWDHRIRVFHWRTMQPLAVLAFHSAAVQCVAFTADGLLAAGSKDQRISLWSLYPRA
UniProt O75496: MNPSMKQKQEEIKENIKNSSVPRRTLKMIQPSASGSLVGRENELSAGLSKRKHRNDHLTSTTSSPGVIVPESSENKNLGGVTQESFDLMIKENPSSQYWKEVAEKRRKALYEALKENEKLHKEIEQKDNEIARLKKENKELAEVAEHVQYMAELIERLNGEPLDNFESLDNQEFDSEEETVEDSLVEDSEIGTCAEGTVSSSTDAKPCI
UniProt Q9BRT9, whole entry, looked up: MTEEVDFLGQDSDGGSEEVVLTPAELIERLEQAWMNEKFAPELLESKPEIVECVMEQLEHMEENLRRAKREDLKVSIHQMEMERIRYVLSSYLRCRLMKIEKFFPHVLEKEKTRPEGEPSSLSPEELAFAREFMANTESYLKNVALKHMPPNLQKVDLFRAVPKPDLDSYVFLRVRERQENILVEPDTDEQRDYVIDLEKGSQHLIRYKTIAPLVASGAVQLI
UniProt P17900: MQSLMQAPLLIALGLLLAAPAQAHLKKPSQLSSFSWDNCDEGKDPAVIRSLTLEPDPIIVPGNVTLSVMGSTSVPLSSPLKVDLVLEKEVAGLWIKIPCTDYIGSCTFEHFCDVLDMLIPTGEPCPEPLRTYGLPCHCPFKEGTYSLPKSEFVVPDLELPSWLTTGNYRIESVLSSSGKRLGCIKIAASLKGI

Compound: CC1=C(C=C(C=C1)NC(=O)C2=CC(=CC=C2)C(C)(C)C#N)NC3=CC4=C(C=C3)N=CN(C4=O)C
Test: log2 fold change, soluble protein after heating vs DMSO (PISA); higher = thermal stabilisation; K562 cells, 10 uM, 30 min; active = over 0.2 and 3.5 SD of the protein, either way, in both replicates (recomputed)
How it was run: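 Values are thermal stability changes relative to control samples and are taken from duplicates. They are stated as log2 fold changes. Before quantification by TMTpro 16plex LC-MS/MS with equalised channel sums, K562 cells at 2×10^6 cells/mL were treated with 10 μM compound for 30 min, heated in aliquots for 3 min across 48°C-58°C, pooled, extracted in PBS with 0.5% NP-40 at 4°C, and centrifuged at 21,000xg for 90 min to give the soluble supernatant.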

Target	log2 fold change
GPAT3 (UniProt Q53EU6)	inactive: -0.023
GK (UniProt P32189)	inactive: -0.033
GLYR1 (UniProt Q49A26)	inactive: 0.039
GPATCH11 (UniProt Q8N954)	inactive: -0.017
GPKOW (UniProt Q92917)	inactive: 0.053
GNB1 (UniProt P62873)	inactive: 0.143
GINS1 (UniProt Q14691)	inactive: 0.027
GNB2 (UniProt P62879)	inactive: 0.11
GNAI2 isoform 4 (UniProt P04899)	inactive: 0.122
GPALPP1 (UniProt Q8IXQ4)	inactive: -0.069
GMPPB isoform 2 (UniProt Q9Y5P6)	inactive: -0.021
GNB4 (UniProt Q9HAV0)	inactive: -0.097
GPHN isoform 2 (UniProt Q9NQX3)	inactive: -0.023
GNL1 (UniProt P36915)	inactive: 0.019
GSK3A (UniProt P49840)	inactive: -0.025
GPAT4 (UniProt Q86UL3)	inactive: 0.05
GIPC1 (UniProt O14908)	inactive: 0.025
GNB1L (UniProt Q9BYB4)	inactive: 0.004
GMNN (UniProt O75496)	inactive: -0.019
GMDS (UniProt O60547)	inactive: -0.034
GPS1 isoform 7 (UniProt Q13098)	inactive: 0.013
GINS4 (UniProt Q9BRT9)	inactive: 0.144
GM2A (UniProt P17900)	inactive: -0.051

Fetched one by one from the entries so far (2):
Target	log2 fold change
GM2A (UniProt P17900)	inactive: -0.051
GPATCH11 (UniProt Q8N954)	inactive: -0.017
